Data on one molecule can be found in patent US20170224836A1 (Novartis, published 2017).

The assay deals with T1, hCDH6aa54-615 APPavi (human, UniProt P55285 54-615).
T1 sequence: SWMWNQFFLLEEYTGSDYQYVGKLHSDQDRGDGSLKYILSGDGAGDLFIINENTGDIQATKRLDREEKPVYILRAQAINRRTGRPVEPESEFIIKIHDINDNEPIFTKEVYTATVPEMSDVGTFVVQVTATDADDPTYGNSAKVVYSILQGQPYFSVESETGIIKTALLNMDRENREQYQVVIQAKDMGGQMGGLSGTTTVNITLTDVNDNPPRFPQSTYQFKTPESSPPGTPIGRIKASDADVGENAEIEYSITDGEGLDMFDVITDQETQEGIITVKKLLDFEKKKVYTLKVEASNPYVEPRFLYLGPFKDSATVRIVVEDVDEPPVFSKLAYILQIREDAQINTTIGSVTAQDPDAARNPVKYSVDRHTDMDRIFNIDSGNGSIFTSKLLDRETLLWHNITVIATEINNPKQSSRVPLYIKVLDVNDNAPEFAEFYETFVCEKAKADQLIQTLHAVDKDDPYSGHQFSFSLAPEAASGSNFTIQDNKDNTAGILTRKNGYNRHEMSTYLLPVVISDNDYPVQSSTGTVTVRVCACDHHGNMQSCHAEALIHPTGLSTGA
Nature of the assay: SPR pairwise binning.

No constants are given. Whether binding was seen depends on the method and setting. Some binding calls cover weakened binding; strength is not graded here.

B1: NOV1132 (antibody, human IgG1, lambda, V domains shown)
VH: QVQLQQSGPGLVKPSQTLSLTCAISGDSVSSQSAGWNWIRQSPSRGLEWLGRIYYRSKWYNDYAVSVKSRITINPDTSKNQFSLQLNSVTPEDTAVYYCAREKYTVSFYDFFDYWGQGTLVTVSS
VL: SYELTQPLSVSVALGQTARITCSGDNIGSMTAHWYQQKPGQAPVLVIYDKNERPSGIPERFSGSNSGNTATLTISRAQAGDEADYYCQSWDDSYTSVVFGGGTKLTVLG
For B1, the binding entry is “binds”.
